No constants are given. Whether binding was seen depends on the method and setting. In cells and extracts the contact can be indirect. Some binding calls cover weakened binding; strength is not graded here.
What was measured:
[1] = target: β-catenin (human (endogenous in DU145)) (UniProt P35222); experiment: co-IP; IP with anti-β-catenin antibody, detection with anti-Lef1 antibodies; DU145 cells and DU145 DCUN1D1-KD cells transfected with pCDNA Flag-DCUN1D1 (DCUN1D1 expression restored)
[2] = target: β-catenin (human (endogenous in DU145)) (UniProt P35222); experiment: condition: only in DU145 DCUN1D1 KD cells (shRNA knock-down of DCUN1D1); co-IP; IP with anti-β-catenin antibody, detection with anti-Lef1 antibodies; DU145 DCUN1D1-KD cells (shRNA against DCUN1D1)
[3] = target: DCUN1D1 (endogenous, DU145) (human (endogenous in DU145)) (UniProt Q96GG9); experiment: co-IP; DU145 cell extract; IP with specific DCUN1D1 antibodies, unspecific IgG as control; immunoblot against CUL1, CUL3 and CUL4B

Protein sequences, listed by entry. Tags and fused reporters are not part of them.
UniProt P35222: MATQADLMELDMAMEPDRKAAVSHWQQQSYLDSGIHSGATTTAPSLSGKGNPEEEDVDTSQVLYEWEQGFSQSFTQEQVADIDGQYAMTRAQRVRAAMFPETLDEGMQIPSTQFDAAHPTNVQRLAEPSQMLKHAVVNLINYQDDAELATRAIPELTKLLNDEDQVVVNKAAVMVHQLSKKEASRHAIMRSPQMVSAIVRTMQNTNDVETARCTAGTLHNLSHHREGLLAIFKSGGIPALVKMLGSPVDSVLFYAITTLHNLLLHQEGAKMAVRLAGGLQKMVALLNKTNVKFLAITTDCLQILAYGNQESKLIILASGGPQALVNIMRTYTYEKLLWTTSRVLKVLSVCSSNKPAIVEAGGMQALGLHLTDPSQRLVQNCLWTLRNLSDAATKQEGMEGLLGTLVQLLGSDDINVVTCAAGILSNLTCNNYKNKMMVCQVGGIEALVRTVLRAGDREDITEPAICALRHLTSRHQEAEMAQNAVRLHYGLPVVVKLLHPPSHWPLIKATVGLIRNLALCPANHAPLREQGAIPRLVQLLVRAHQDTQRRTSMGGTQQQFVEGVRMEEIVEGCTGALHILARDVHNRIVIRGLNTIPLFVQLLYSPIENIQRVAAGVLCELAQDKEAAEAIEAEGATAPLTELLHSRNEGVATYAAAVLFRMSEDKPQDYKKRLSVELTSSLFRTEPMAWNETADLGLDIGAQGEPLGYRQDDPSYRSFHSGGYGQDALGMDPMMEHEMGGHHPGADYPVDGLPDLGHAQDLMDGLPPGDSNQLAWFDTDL
UniProt Q96GG9: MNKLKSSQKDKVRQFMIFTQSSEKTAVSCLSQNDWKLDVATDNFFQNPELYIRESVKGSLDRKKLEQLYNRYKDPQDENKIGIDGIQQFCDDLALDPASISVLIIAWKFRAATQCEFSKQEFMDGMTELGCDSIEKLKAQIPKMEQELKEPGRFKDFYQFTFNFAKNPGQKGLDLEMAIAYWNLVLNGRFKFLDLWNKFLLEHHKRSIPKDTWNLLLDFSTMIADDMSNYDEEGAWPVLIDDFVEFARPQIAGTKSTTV
UniProt Q9UJU2: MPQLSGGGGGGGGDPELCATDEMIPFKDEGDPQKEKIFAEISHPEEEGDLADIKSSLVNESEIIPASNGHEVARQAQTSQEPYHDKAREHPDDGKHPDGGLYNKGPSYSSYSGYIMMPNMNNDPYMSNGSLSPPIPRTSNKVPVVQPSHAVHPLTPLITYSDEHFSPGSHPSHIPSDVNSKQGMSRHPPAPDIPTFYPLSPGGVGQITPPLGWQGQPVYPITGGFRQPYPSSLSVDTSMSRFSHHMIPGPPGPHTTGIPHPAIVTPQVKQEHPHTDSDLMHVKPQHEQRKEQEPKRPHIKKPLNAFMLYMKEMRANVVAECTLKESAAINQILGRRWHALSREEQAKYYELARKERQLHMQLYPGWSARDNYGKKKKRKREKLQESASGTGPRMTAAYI
UniProt Q13620: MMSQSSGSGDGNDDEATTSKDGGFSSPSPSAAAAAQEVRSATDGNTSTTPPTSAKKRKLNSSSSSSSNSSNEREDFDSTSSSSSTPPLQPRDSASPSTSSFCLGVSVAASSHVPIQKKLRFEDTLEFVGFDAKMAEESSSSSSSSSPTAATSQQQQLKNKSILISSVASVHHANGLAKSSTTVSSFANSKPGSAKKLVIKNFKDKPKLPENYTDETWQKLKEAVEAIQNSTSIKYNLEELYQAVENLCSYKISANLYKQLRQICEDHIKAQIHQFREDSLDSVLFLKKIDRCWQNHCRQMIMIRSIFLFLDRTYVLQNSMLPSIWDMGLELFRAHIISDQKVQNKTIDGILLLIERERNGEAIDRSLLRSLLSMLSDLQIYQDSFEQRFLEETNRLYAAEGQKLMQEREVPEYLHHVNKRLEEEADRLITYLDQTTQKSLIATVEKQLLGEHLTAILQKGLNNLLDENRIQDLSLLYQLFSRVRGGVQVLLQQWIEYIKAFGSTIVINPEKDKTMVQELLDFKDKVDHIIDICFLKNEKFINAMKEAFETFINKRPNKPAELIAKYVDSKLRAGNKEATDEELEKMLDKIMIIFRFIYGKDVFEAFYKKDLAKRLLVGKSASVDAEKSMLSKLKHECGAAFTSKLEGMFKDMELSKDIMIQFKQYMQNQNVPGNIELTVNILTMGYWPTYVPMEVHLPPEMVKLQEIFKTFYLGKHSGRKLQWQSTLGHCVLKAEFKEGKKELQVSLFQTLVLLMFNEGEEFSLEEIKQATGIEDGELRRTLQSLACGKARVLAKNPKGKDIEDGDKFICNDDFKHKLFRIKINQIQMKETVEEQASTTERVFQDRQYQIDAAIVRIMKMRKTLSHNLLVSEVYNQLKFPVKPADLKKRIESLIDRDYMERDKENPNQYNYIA

| Substance | binding [1] | binding [2] | binding [3] |
| --- | --- | --- | --- |
| Lef1 (from UniProt Q9UJU2 1-399) | binds | no binding |  |
| cullin 4B (CUL4B) (from UniProt Q13620 1-913) |  |  | binds |

— article PMC10417424
